Laboratory results from article doi:10.1101/2025.09.18.677107.
No constants are given. Whether binding was seen depends on the method and setting. Binding seen in cells or lysates may run through a third protein. Some binding calls cover weakened binding; strength is not graded here. Sequences can lack the tags named with a protein.

Key:
[1] = biological target: CYSTEINE-RICH RECEPTOR-LIKE KINASE 7 (CRK7), tagged with mCitrine or mScarlet-I (Arabidopsis thaliana) (UniProt Q8L7G3); experiment: co-IP
[2] = biological target: CYSTEINE-RICH RECEPTOR-LIKE KINASE 7 (CRK7), tagged with mCitrine or mScarlet-I (Arabidopsis thaliana) (UniProt Q8L7G3); experiment: FRET or BRET
[3] = biological target: T1, CYSTEINE-RICH RECEPTOR-LIKE KINASE 43 (CRK43), mCitrine-tagged (Arabidopsis thaliana) (UniProt Q9CAC3); experiment: co-IP
T1 sequence: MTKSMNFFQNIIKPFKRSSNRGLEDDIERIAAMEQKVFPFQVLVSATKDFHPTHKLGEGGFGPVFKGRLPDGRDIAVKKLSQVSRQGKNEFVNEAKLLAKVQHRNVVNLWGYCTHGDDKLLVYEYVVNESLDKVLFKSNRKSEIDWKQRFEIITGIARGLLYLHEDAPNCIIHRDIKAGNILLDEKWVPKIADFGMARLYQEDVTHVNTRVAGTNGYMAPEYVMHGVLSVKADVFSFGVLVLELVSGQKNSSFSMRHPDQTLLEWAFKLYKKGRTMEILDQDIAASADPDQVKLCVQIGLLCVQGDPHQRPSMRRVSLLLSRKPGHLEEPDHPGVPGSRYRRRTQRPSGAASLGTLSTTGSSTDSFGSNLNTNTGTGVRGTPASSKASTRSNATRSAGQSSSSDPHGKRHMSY

B1: CYSTEINE-RICH RECEPTOR-LIKE KINASE 7 (CRK7), tagged with mCitrine or mScarlet-I (receptor, UniProt Q8L7G3 24-659)
chain: QDPRFLAYYCPNATTYSSNSTYLTNLKTLLSSLSSRNASYSTGFQNATVGQALDRVTGLFLCRGDVSPEVCRNCVTFAVNNTFSRCPNQREAVFYYEECILRYSHKNILSTAITNEGEFILRNPNHISPIQNQINQFTNLVLSNMNQIAIEAADNPRKFSTIKTELTALQTFYGLVQCTPDLSRQNCMNCLTSSINRMPFSRIGARQFWPSCNSRYELYDFYNETAIGTPPPPLPPLASPSLSDKSGNSNVVVVAVVVPIIVAVLIFIAGYCFFAKRAKKTYGTTPALDEDDKTTIESLQLDYRAIQAATNDFSENNKIGRGGFGDVYKGTFSNGTEVAVKRLSKTSEQGDTEFKNEVVVVANLRHKNLVRILGFSIEREERILVYEYVENKSLDNFLFDPAKKGQLYWTQRYHIIGGIARGILYLHQDSRLTIIHRDLKASNILLDADMNPKIADFGMARIFGMDQTQQNTSRIVGTYGYMSPEYAMRGQFSMKSDVYSFGVLVLEIISGRKNNSFIETDDAQDLVTHAWRLWRNGTALDLVDPFIADSCRKSEVVRCTHIGLLCVQEDPVKRPAMSTISVMLTSNTMALPAPQQPGFFVRSRPGTNRLDSDQSTTNKSVTVSIDDKSMSDLDPR
In the case of B1, the binding [1] is reported as “binds” and the binding [2] is reported as “binds”.

B2: CYSTEINE-RICH RECEPTOR-LIKE KINASE 7 (CRK7), as used in the CRK7-CRK43 co-immunoprecipitation (Fig. 4E) (receptor, UniProt Q8L7G3 24-659)
chain: B1 chain
B2 was tested, and the binding [3] was “binds”.
